# Earlier results, collected in patent publication US11642346B2, “Combination therapy for treating cancer” (Epizyme, Inc., priority 2017, dated 2023).
# Tested on: G401 cell line
# Details: read-out: Long term proliferation IC50; G401 malignant rhabdoid tumor cell line; cited from earlier work
compound,measurement,value
CCN(c1cc(-c2ccc(CN3CCOCC3)cc2)cc(C(=O)NCc2c(C)cc(C)[nH]c2=O)c1C)C1CCOCC1 [tazemetostat],IC50,135 nM
